# Where “and” joins values, the source holds several entries; their conditions need not be identical. Equal entries are not always repeated. This is one part of the list. These are further read-outs of the screen, such as a control signal, another cell line or another target. No call is given for them. Compounds called inactive in the main read-out are mostly missing here. The note in brackets gives the kind of curve behind each potency; many fits are weak.
# Test: qHTS Assay for Modulators of Lamin A Splicing
# Conditions: HeLa LMNA splicing GFP/RFP minigene ratio, 48 h
# In short: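 S3 HeLa stable clones carrying a lamin A-EGFP splicing minigene plus DsRed2 were seeded at 600 cells/well in Opti-MEM with 2% FBS, pin-dosed and incubated 48 h at 37°C. Acumen cytometry (488 nm) gave the GFP/RFP total-intensity ratio.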
# [1] = measured here: GFP splicing reporter channel
# [2] = measured here: RFP viability control channel
Structure (SMILES),AC50 [1],AC50 [2]
O=C(Nc1ccc(Cl)c([N+](=O)[O-])c1)c1cnccn1,"0.794 µM [rising, partial curve]","0.1 µM [rising, full curve, poor fit]"
O=C(O)Cn1nnnc1SCC(=O)Nc1ccc(F)cc1F,"0.02 µM [falling, full curve, poor fit]",–
CCNc1nc(NC(C)(C)C)nc(N2CCCCC2)n1,"4.47 µM [falling, partial curve]","11.2 µM [falling, partial curve]"
O=C(O/N=C1\C(=O)N(c2ccccc2)c2ccccc21)C1CC1,–,"0.0316 µM [falling, full curve, poor fit]"
CCOc1ccc(S(=O)(=O)N2CCN(c3ccccc3OC)CC2)c2cccnc12,"12.6 µM [rising, partial curve]","20 µM [rising, single point]"
Cc1cc(O)cc(O)c1C(=O)Cc1ccccc1,"7.94 µM [rising, partial curve]","12.6 µM [rising, partial curve]"
CCOC(=O)C1(CCc2ccccc2)CCN(C(=O)c2cnc(C)cn2)CC1,–,"7.94 µM [falling, partial curve, poor fit]"
Cc1ccc(CC(=O)Nc2ccc(F)c([N+](=O)[O-])c2)cc1C,–,"14.1 µM [rising, partial curve]"
NC(=O)/C=C\C(=O)Nc1cccc(C(F)(F)F)c1,"12.6 µM [falling, partial curve]","22.4 µM [falling, partial curve]"
CCS(=O)(=O)NCCc1csc2nc(-c3ccc(C)cc3)nn12,"0.0126 µM [falling, full curve, poor fit]",–
CCCOc1ccccc1-c1nc2n[nH]nc2c(=O)[nH]1,"3.16 µM [falling, partial curve]","3.98 µM [falling, partial curve] and 4.47 µM [rising, single point]"
Fc1ccccc1C1c2cccn2CCN1C(=S)Nc1ccc(Br)cc1 (configuration not stated),–,"35.5 µM [rising, single point]"
CN(C)c1ccc(-c2cncnc2NCCN2CCOCC2)cc1,"10 µM [falling, partial curve]","10 µM [falling, partial curve]"
O=C(Nc1cccc(S(=O)(=O)N2CCCCCC2)c1)c1ccc2ccccc2n1,–,"35.5 µM [rising, single point]"
CCN(CC)C(=O)c1sc2c(c1C)c(=O)n(CCc1ccccc1)c(=O)n2Cc1cccc(Cl)c1,"35.5 µM [rising, single point]",–

# Shown tab-delimited: part of the list above.
Structure (SMILES)	AC50 [1]	AC50 [2]
Fc1ccccc1C1c2cccn2CCN1C(=S)Nc1ccc(Br)cc1 (configuration not stated)	–	35.5 µM [rising, single point]
CN(C)c1ccc(-c2cncnc2NCCN2CCOCC2)cc1	10 µM [falling, partial curve]	10 µM [falling, partial curve]

# From PubChem BioAssay AID1487 (National Center for Advancing Translational Sciences (NCATS), 2009)
